{"source": "the supplement of paper PMC8728848", "binders": {"B1": {"name": "Gs78B-bfa-542-29-542 (Bacteroides fragilis) (protein)", "chain": "SEDINRNPLLPTKEDEKMDGVIYGAYLPNLEKSVIPIGTASESTEPVNRYQIGVNLAGDAWAGYMSPRDNKFNGSKNFTNYFMYENWVNYVYSFMVTDVYSPWMQIKRISQDEGTRNDEIYALAQIIKIAALHRTTDMFGPIPYSQVGKGSFKVAYDSQESVYRSFLKELEEAVQTLDDYSNKSKEVLPAFDIVYNGDVNKWMRFANSLMLRLAIRVRFADAGLAKEYAEKAVKHPAGLINSKELAAQMGKGAGLQMKNPLKVINEEYNDTRMGATIYSYLAGYNDARAAVYFVKNNGFKAVRCGIAKSGDAYNGFTRPNVHEDDPLYWMKASEVCFLKAEGALAGFDMGGSAGDFYNAGIRMSFSENGLDNSSAETYLKDSTRKPANYTDTSNGELSANAPSSITIRWENGATEEEKLERIITQKYLAIFPNGQEAWTEWRRTGYPRQIVVAENKTNSAVLIGNGYDLGGVRRLPYPRTEYEQNGENLHNAISQYLGGVDNAATKVWWDKKSK"}}, "experiment_in_all_cases": "glycan array binding signal (z-score within array); higher = stronger binding", "conditions_in_all_cases": "glycan notation: IUPAC condensed, linker removed", "key": {"[1]": {"target": "Neu5Ac(a2-3)Gal(b1-4)GlcNAc(b1-2)[Neu5Ac(a2-3)Gal(b1-4)GlcNAc(b1-4)]Man(a1-3)[GlcNAc(b1-4)][Neu5Ac(a2-3)Gal(b1-4)GlcNAc(b1-4)Man(a1-6)]Man(b1-4)GlcNAc(b1-4)GlcNAc", "procedure,_shortened": "(§1)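 Glycan array data came from 3228 arrays in the Consortium for Functional Glycomics database, and only arrays with an available protein sequence were kept. Glycan names were put into IUPAC-condensed notation, and columns mapping to the same glycan were averaged. The binding signal is a within-array Z-score, averaged across arrays of one protein sequence run at different concentrations or buffers and across linkers. A negative Z-score can be read as non-binding.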"}, "[2]": {"target": "Neu5Ac(a2-3)Gal(b1-4)GlcNAc(b1-2)[Neu5Ac(a2-3)Gal(b1-4)GlcNAc(b1-6)]Man(a1-6)[Neu5Ac(a2-3)Gal(b1-4)GlcNAc(b1-2)Man(a1-3)]Man(b1-4)GlcNAc(b1-4)GlcNAc", "procedure,_shortened": "as §1"}, "[3]": {"target": "Neu5Ac(a2-3)Gal(b1-4)GlcNAc(b1-2)[Neu5Ac(a2-3)Gal(b1-4)GlcNAc(b1-6)]Man(a1-6)[Neu5Ac(a2-3)Gal(b1-4)GlcNAc(b1-2)Man(a1-3)][GlcNAc(b1-4)]Man(b1-4)GlcNAc(b1-4)GlcNAc", "procedure,_shortened": "as §1"}, "[4]": {"target": "Neu5Ac(a2-3)Gal(b1-4)GlcNAc(b1-3)Gal", "procedure,_shortened": "as §1"}, "[5]": {"target": "Neu5Ac(a2-3)Gal(b1-4)GlcNAc(b1-3)Gal(b1-3)GlcNAc", "procedure,_shortened": "as §1"}, "[6]": {"target": "Neu5Ac(a2-3)Gal(b1-4)GlcNAc(b1-3)Gal(b1-4)GlcNAc", "procedure,_shortened": "as §1"}, "[7]": {"target": "Neu5Ac(a2-3)Gal(b1-4)GlcNAc(b1-3)Gal(b1-4)GlcNAc(b1-2)Man(a1-3)[Neu5Ac(a2-3)Gal(b1-4)GlcNAc(b1-3)Gal(b1-4)GlcNAc(b1-2)Man(a1-6)]Man(b1-4)GlcNAc(b1-4)GlcNAc", "procedure,_shortened": "as §1"}, "[8]": {"target": "Neu5Ac(a2-3)Gal(b1-4)GlcNAc(b1-3)Gal(b1-4)GlcNAc(b1-3)Gal(b1-4)GlcNAc", "procedure,_shortened": "as §1"}, "[9]": {"target": "Neu5Ac(a2-3)Gal(b1-4)GlcNAc(b1-3)Gal(b1-4)GlcNAc(b1-3)Gal(b1-4)GlcNAc(b1-2)Man(a1-3)[Neu5Ac(a2-3)Gal(b1-4)GlcNAc(b1-3)Gal(b1-4)GlcNAc(b1-3)Gal(b1-4)GlcNAc(b1-2)Man(a1-6)]GalNAc", "procedure,_shortened": "as §1"}, "[10]": {"target": "Neu5Ac(a2-3)Gal(b1-4)GlcNAc(b1-3)Gal(b1-4)GlcNAc(b1-3)GalNAc", "procedure,_shortened": "as §1"}, "[11]": {"target": "Neu5Ac(a2-3)Gal(b1-4)GlcNAc(b1-3)Gal(b1-4)GlcNAc(b1-3)[Neu5Ac(a2-3)Gal(b1-4)GlcNAc(b1-3)Gal(b1-4)GlcNAc(b1-6)]GalNAc", "procedure,_shortened": "as §1"}, "[12]": {"target": "Neu5Ac(a2-3)Gal(b1-4)GlcNAc(b1-3)Gal(b1-4)GlcNAc(b1-6)[Gal(b1-3)]GalNAc", "procedure,_shortened": "as §1"}, "[13]": {"target": "Neu5Ac(a2-3)Gal(b1-4)GlcNAc(b1-3)Gal(b1-4)[Fuc(a1-3)]GlcNAc", "procedure,_shortened": "as §1"}, "[14]": {"target": "Neu5Ac(a2-3)Gal(b1-4)GlcNAc(b1-3)GalNAc", "procedure,_shortened": "as §1"}, "[15]": {"target": "Neu5Ac(a2-3)Gal(b1-4)GlcNAc(b1-3)[Neu5Ac(a2-3)Gal(b1-4)GlcNAc(b1-6)]GalNAc", "procedure,_shortened": "as §1"}, "[16]": {"target": "Neu5Ac(a2-3)Gal(b1-4)GlcNAc(b1-6)GalNAc", "procedure,_shortened": "as §1"}, "[17]": {"target": "Neu5Ac(a2-3)Gal(b1-4)GlcNAc(b1-6)[Gal(b1-3)]GalNAc", "procedure,_shortened": "as §1"}, "[18]": {"target": "Neu5Ac(a2-3)Gal(b1-4)GlcNAc(b1-6)[Neu5Ac(a2-3)Gal(b1-3)]GalNAc", "procedure,_shortened": "as §1"}, "[19]": {"target": "Neu5Ac(a2-3)Gal(b1-4)GlcNAc6S", "procedure,_shortened": "as §1"}, "[20]": {"target": "Neu5Ac(a2-3)Gal(b1-4)[Fuc(a1-3)]GlcNAc", "procedure,_shortened": "as §1"}, "[21]": {"target": "Neu5Ac(a2-3)Gal(b1-4)[Fuc(a1-3)]GlcNAc(b1-2)Man", "procedure,_shortened": "as §1"}, "[22]": {"target": "Neu5Ac(a2-3)Gal(b1-4)[Fuc(a1-3)]GlcNAc(b1-3)Gal", "procedure,_shortened": "as §1"}, "[23]": {"target": "Neu5Ac(a2-3)Gal(b1-4)[Fuc(a1-3)]GlcNAc(b1-3)Gal(b1-4)GlcNAc", "procedure,_shortened": "as §1"}, "[24]": {"target": "Neu5Ac(a2-3)Gal(b1-4)[Fuc(a1-3)]GlcNAc(b1-3)Gal(b1-4)[Fuc(a1-3)]GlcNAc(b1-3)Gal(b1-4)[Fuc(a1-3)]GlcNAc", "procedure,_shortened": "as §1"}, "[25]": {"target": "Neu5Ac(a2-3)Gal(b1-4)[Fuc(a1-3)]GlcNAc(b1-3)GalNAc", "procedure,_shortened": "as §1"}, "[26]": {"target": "Neu5Ac(a2-3)Gal(b1-4)[Fuc(a1-3)]GlcNAc(b1-6)[Gal(b1-3)]GalNAc", "procedure,_shortened": "as §1"}, "[27]": {"target": "Neu5Ac(a2-3)Gal(b1-4)[Fuc(a1-3)]GlcNAc(b1-6)[Neu5Ac(a2-3)Gal(b1-3)]GalNAc", "procedure,_shortened": "as §1"}, "[28]": {"target": "Neu5Ac(a2-3)Gal(b1-4)[Fuc(a1-3)]GlcNAc6S", "procedure,_shortened": "as §1"}, "[29]": {"target": "Neu5Ac(a2-3)Gal6S(b1-4)GlcNAc", "procedure,_shortened": "as §1"}, "[30]": {"target": "Neu5Ac(a2-3)Gal6S(b1-4)[Fuc(a1-3)]GlcNAc", "procedure,_shortened": "as §1"}, "Neu5Ac(a2-3)GalNAc": {"target": "Neu5Ac(a2-3)GalNAc", "procedure,_shortened": "as §1"}, "[31]": {"target": "Neu5Ac(a2-3)GalNAc(b1-4)GlcNAc", "procedure,_shortened": "as §1"}, "[32]": {"target": "Neu5Ac(a2-3)[GalNAc(b1-4)]Gal(b1-4)Glc", "procedure,_shortened": "as §1"}, "[33]": {"target": "Neu5Ac(a2-3)[GalNAc(b1-4)]Gal(b1-4)GlcNAc", "procedure,_shortened": "as §1"}, "[34]": {"target": "Neu5Ac(a2-3)[GalNAc(b1-4)]Gal(b1-4)GlcNAc(b1-3)GalNAc", "procedure,_shortened": "as §1"}, "[35]": {"target": "Neu5Ac(a2-3)[Neu5Ac(a2-6)]GalNAc", "procedure,_shortened": "as §1"}, "Neu5Ac(a2-6)Gal": {"target": "Neu5Ac(a2-6)Gal", "procedure,_shortened": "as §1"}}, "note": "Some of the results follow."}
{"binder": "B1", "values": [{"measurement": "glycan array binding signal (z-score)", "setting": "[1]", "result": -0.823}, {"measurement": "glycan array binding signal (z-score)", "setting": "[2]", "result": 0.079}, {"measurement": "glycan array binding signal (z-score)", "setting": "[3]", "result": -0.835}, {"measurement": "glycan array binding signal (z-score)", "setting": "[4]", "result": -0.843}, {"measurement": "glycan array binding signal (z-score)", "setting": "[5]", "result": -0.822}, {"measurement": "glycan array binding signal (z-score)", "setting": "[6]", "result": -0.212}, {"measurement": "glycan array binding signal (z-score)", "setting": "[7]", "result": 1.91}, {"measurement": "glycan array binding signal (z-score)", "setting": "[8]", "result": -0.832}, {"measurement": "glycan array binding signal (z-score)", "setting": "[9]", "result": 0.43}, {"measurement": "glycan array binding signal (z-score)", "setting": "[10]", "result": -0.255}, {"measurement": "glycan array binding signal (z-score)", "setting": "[11]", "result": 0.912}, {"measurement": "glycan array binding signal (z-score)", "setting": "[12]", "result": 1.75}, {"measurement": "glycan array binding signal (z-score)", "setting": "[13]", "result": -0.504}, {"measurement": "glycan array binding signal (z-score)", "setting": "[14]", "result": -0.546}, {"measurement": "glycan array binding signal (z-score)", "setting": "[15]", "result": -0.818}, {"measurement": "glycan array binding signal (z-score)", "setting": "[16]", "result": 0.453}, {"measurement": "glycan array binding signal (z-score)", "setting": "[17]", "result": -0.422}, {"measurement": "glycan array binding signal (z-score)", "setting": "[18]", "result": -0.843}, {"measurement": "glycan array binding signal (z-score)", "setting": "[19]", "result": -0.24}, {"measurement": "glycan array binding signal (z-score)", "setting": "[20]", "result": -0.84}, {"measurement": "glycan array binding signal (z-score)", "setting": "[21]", "result": -0.854}, {"measurement": "glycan array binding signal (z-score)", "setting": "[22]", "result": -0.807}, {"measurement": "glycan array binding signal (z-score)", "setting": "[23]", "result": 0.919}, {"measurement": "glycan array binding signal (z-score)", "setting": "[24]", "result": -0.781}, {"measurement": "glycan array binding signal (z-score)", "setting": "[25]", "result": 0.763}, {"measurement": "glycan array binding signal (z-score)", "setting": "[26]", "result": -0.266}, {"measurement": "glycan array binding signal (z-score)", "setting": "[27]", "result": 5.64}, {"measurement": "glycan array binding signal (z-score)", "setting": "[28]", "result": -0.804}, {"measurement": "glycan array binding signal (z-score)", "setting": "[29]", "result": -0.513}, {"measurement": "glycan array binding signal (z-score)", "setting": "[30]", "result": -0.849}, {"measurement": "glycan array binding signal (z-score)", "setting": "Neu5Ac(a2-3)GalNAc", "result": -0.526}, {"measurement": "glycan array binding signal (z-score)", "setting": "[31]", "result": -0.652}, {"measurement": "glycan array binding signal (z-score)", "setting": "[32]", "result": -0.208}, {"measurement": "glycan array binding signal (z-score)", "setting": "[33]", "result": -0.185}, {"measurement": "glycan array binding signal (z-score)", "setting": "[34]", "result": 2.04}, {"measurement": "glycan array binding signal (z-score)", "setting": "[35]", "result": -0.608}, {"measurement": "glycan array binding signal (z-score)", "setting": "Neu5Ac(a2-6)Gal", "result": -0.792}]}
